# Results: the supplement of paper PMC8728848
# The other results are listed elsewhere or left out.
# How the values were obtained:
# Test in all cases: glycan array binding signal (z-score within array); higher = stronger binding
# Details in all cases: glycan notation: IUPAC condensed, linker removed
# GlcNAc(b1-3)Fuc = target: GlcNAc(b1-3)Fuc
# How it was run: (§1)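 Glycan array data came from 3228 arrays in the Consortium for Functional Glycomics database, and only arrays with an available protein sequence were kept. Glycan names were put into IUPAC-condensed notation, and columns mapping to the same glycan were averaged. The binding signal is a within-array Z-score, averaged across arrays of one protein sequence run at different concentrations or buffers and across linkers. A negative Z-score can be read as non-binding.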
# GlcNAc(b1-3)Gal = target: GlcNAc(b1-3)Gal
# How it was run: as §1
# [1] = target: GlcNAc(b1-3)Gal(b1-3)GalNAc
# How it was run: as §1
# GlcNAc(b1-3)Gal(b1-4)Glc = target: GlcNAc(b1-3)Gal(b1-4)Glc
# How it was run: as §1
# [2] = target: GlcNAc(b1-3)Gal(b1-4)GlcNAc
# How it was run: as §1
# [3] = target: GlcNAc(b1-3)Gal(b1-4)GlcNAc(b1-2)Man(a1-3)[GlcNAc(b1-3)Gal(b1-4)GlcNAc(b1-2)Man(a1-6)]Man(b1-4)GlcNAc(b1-4)GlcNAc
# How it was run: as §1
# [4] = target: GlcNAc(b1-3)Gal(b1-4)GlcNAc(b1-2)Man(a1-3)[GlcNAc(b1-3)Gal(b1-4)GlcNAc(b1-2)Man(a1-6)]Man(b1-4)GlcNAc(b1-4)[Fuc(a1-6)]GlcNAc
# How it was run: as §1
# [5] = target: GlcNAc(b1-3)Gal(b1-4)GlcNAc(b1-2)[GlcNAc(b1-3)Gal(b1-4)GlcNAc(b1-6)]Man(a1-6)[GlcNAc(b1-3)Gal(b1-4)GlcNAc(b1-2)Man(a1-3)]Man(b1-4)GlcNAc(b1-4)GlcNAc
# How it was run: as §1
# [6] = target: GlcNAc(b1-3)Gal(b1-4)GlcNAc(b1-3)Gal(b1-4)GlcNAc
# How it was run: as §1
# [7] = target: GlcNAc(b1-3)Gal(b1-4)GlcNAc(b1-3)Gal(b1-4)GlcNAc(b1-2)Man(a1-3)[GlcNAc(b1-3)Gal(b1-4)GlcNAc(b1-3)Gal(b1-4)GlcNAc(b1-2)Man(a1-6)]Man(b1-4)GlcNAc(b1-4)GlcNAc
# How it was run: as §1
# [8] = target: GlcNAc(b1-3)Gal(b1-4)GlcNAc(b1-3)Gal(b1-4)GlcNAc(b1-2)Man(a1-3)[GlcNAc(b1-3)Gal(b1-4)GlcNAc(b1-3)Gal(b1-4)GlcNAc(b1-2)Man(a1-6)]Man(b1-4)GlcNAc(b1-4)[Fuc(a1-6)]GlcNAc
# How it was run: as §1
# [9] = target: GlcNAc(b1-3)Gal(b1-4)GlcNAc(b1-3)Gal(b1-4)GlcNAc(b1-2)[GlcNAc(b1-3)Gal(b1-4)GlcNAc(b1-3)Gal(b1-4)GlcNAc(b1-6)]Man(a1-6)[GlcNAc(b1-3)Gal(b1-4)GlcNAc(b1-3)Gal(b1-4)GlcNAc(b1-2)Man(a1-3)]Man(b1-4)GlcNAc(b1-4)[Fuc(a1-6)]GlcNAc
# How it was run: as §1
# [10] = target: GlcNAc(b1-3)Gal(b1-4)GlcNAc(b1-3)Gal(b1-4)GlcNAc(b1-3)Gal(b1-4)GlcNAc(b1-2)Man(a1-3)[GlcNAc(b1-3)Gal(b1-4)GlcNAc(b1-3)Gal(b1-4)GlcNAc(b1-3)Gal(b1-4)GlcNAc(b1-2)Man(a1-6)]Man(b1-4)GlcNAc(b1-4)GlcNAc
# How it was run: as §1
# [11] = target: GlcNAc(b1-3)Gal(b1-4)GlcNAc(b1-3)Gal(b1-4)GlcNAc(b1-3)Gal(b1-4)GlcNAc(b1-2)Man(a1-3)[GlcNAc(b1-3)Gal(b1-4)GlcNAc(b1-3)Gal(b1-4)GlcNAc(b1-3)Gal(b1-4)GlcNAc(b1-2)Man(a1-6)]Man(b1-4)GlcNAc(b1-4)[Fuc(a1-6)]GlcNAc
# How it was run: as §1
# [12] = target: GlcNAc(b1-3)Gal(b1-4)GlcNAc(b1-3)Gal(b1-4)GlcNAc(b1-3)Gal(b1-4)GlcNAc(b1-2)[GlcNAc(b1-3)Gal(b1-4)GlcNAc(b1-3)Gal(b1-4)GlcNAc(b1-3)Gal(b1-4)GlcNAc(b1-6)]Man(a1-6)[GlcNAc(b1-3)Gal(b1-4)GlcNAc(b1-3)Gal(b1-4)GlcNAc(b1-3)Gal(b1-4)GlcNAc(b1-2)Man(a1-3)]Man(b1-4)GlcNAc(b1-4)[Fuc(a1-6)]GlcNAc
# How it was run: as §1
# [13] = target: GlcNAc(b1-3)Gal(b1-4)GlcNAc(b1-3)Gal(b1-4)GlcNAc(b1-3)Gal(b1-4)GlcNAc(b1-3)Gal(b1-4)GlcNAc(b1-2)Man(a1-3)[GlcNAc(b1-3)Gal(b1-4)GlcNAc(b1-3)Gal(b1-4)GlcNAc(b1-3)Gal(b1-4)GlcNAc(b1-3)Gal(b1-4)GlcNAc(b1-2)Man(a1-6)]Man(b1-4)GlcNAc(b1-4)GlcNAc
# How it was run: as §1
# [14] = target: GlcNAc(b1-3)Gal(b1-4)GlcNAc(b1-3)Gal(b1-4)GlcNAc(b1-3)Gal(b1-4)GlcNAc(b1-3)Gal(b1-4)GlcNAc(b1-2)Man(a1-3)[GlcNAc(b1-3)Gal(b1-4)GlcNAc(b1-3)Gal(b1-4)GlcNAc(b1-3)Gal(b1-4)GlcNAc(b1-3)Gal(b1-4)GlcNAc(b1-2)Man(a1-6)]Man(b1-4)GlcNAc(b1-4)[Fuc(a1-6)]GlcNAc
# How it was run: as §1
# [15] = target: GlcNAc(b1-3)Gal(b1-4)GlcNAc(b1-3)Gal(b1-4)GlcNAc(b1-3)Gal(b1-4)GlcNAc(b1-3)Gal(b1-4)GlcNAc(b1-2)[GlcNAc(b1-3)Gal(b1-4)GlcNAc(b1-3)Gal(b1-4)GlcNAc(b1-3)Gal(b1-4)GlcNAc(b1-3)Gal(b1-4)GlcNAc(b1-6)]Man(a1-6)[GlcNAc(b1-3)Gal(b1-4)GlcNAc(b1-3)Gal(b1-4)GlcNAc(b1-3)Gal(b1-4)GlcNAc(b1-3)Gal(b1-4)GlcNAc(b1-2)Man(a1-3)]Man(b1-4)GlcNAc(b1-4)[Fuc(a1-6)]GlcNAc
# How it was run: as §1
# [16] = target: GlcNAc(b1-3)Gal(b1-4)GlcNAc(b1-3)Gal(b1-4)GlcNAc(b1-3)GalNAc
# How it was run: as §1
# [17] = target: GlcNAc(b1-3)Gal(b1-4)GlcNAc(b1-3)GalNAc
# How it was run: as §1
# [18] = target: GlcNAc(b1-3)Gal(b1-4)GlcNAc(b1-3)[GlcNAc(b1-3)Gal(b1-4)GlcNAc(b1-3)]GalNAc
# How it was run: as §1
# [19] = target: GlcNAc(b1-3)Gal(b1-4)GlcNAc(b1-6)[Gal(b1-3)]GalNAc
# How it was run: as §1
# [20] = target: GlcNAc(b1-3)Gal(b1-4)GlcNAc(b1-6)[GlcNAc(b1-3)Gal(b1-3)]GalNAc
# How it was run: as §1
# [21] = target: GlcNAc(b1-3)Gal(b1-4)GlcNAc(b1-6)[GlcNAc(b1-3)]Gal(b1-4)GlcNAc
# How it was run: as §1
# GlcNAc(b1-3)GalNAc = target: GlcNAc(b1-3)GalNAc
# How it was run: as §1
# GlcNAc(b1-3)Man = target: GlcNAc(b1-3)Man
# How it was run: as §1
# [22] = target: GlcNAc(b1-3)[GlcNAc(b1-4)][GlcNAc(b1-6)]GlcNAc
# How it was run: as §1
# [23] = target: GlcNAc(b1-3)[GlcNAc(b1-6)]Gal(b1-4)GlcNAc
# How it was run: as §1
# [24] = target: GlcNAc(b1-3)[GlcNAc(b1-6)]GalNAc
# How it was run: as §1
# [25] = target: GlcNAc(b1-4)Gal(b1-4)GlcNAc
# How it was run: as §1
binder,measurement,setting,value
KISKRILTGKK [NK11 (Sus scrofa)],glycan array binding signal (z-score),GlcNAc(b1-3)Fuc,0
same,glycan array binding signal (z-score),GlcNAc(b1-3)Gal,-0.073
same,glycan array binding signal (z-score),[1],-0.235
same,glycan array binding signal (z-score),GlcNAc(b1-3)Gal(b1-4)Glc,-0.044
same,glycan array binding signal (z-score),[2],-0.743
same,glycan array binding signal (z-score),[3],0.18
same,glycan array binding signal (z-score),[4],1.05
same,glycan array binding signal (z-score),[5],-0.711
same,glycan array binding signal (z-score),[6],-0.783
same,glycan array binding signal (z-score),[7],1.86
same,glycan array binding signal (z-score),[8],1.97
same,glycan array binding signal (z-score),[9],2.97
same,glycan array binding signal (z-score),[10],1.4
same,glycan array binding signal (z-score),[11],2.29
same,glycan array binding signal (z-score),[12],2.73
same,glycan array binding signal (z-score),[13],1.84
same,glycan array binding signal (z-score),[14],0.231
same,glycan array binding signal (z-score),[15],2.27
same,glycan array binding signal (z-score),[16],0.348
same,glycan array binding signal (z-score),[17],2.4
same,glycan array binding signal (z-score),[18],1.74
same,glycan array binding signal (z-score),[19],0.245
same,glycan array binding signal (z-score),[20],0.213
same,glycan array binding signal (z-score),[21],-0.79
same,glycan array binding signal (z-score),GlcNAc(b1-3)GalNAc,-1.23
same,glycan array binding signal (z-score),GlcNAc(b1-3)Man,0.023
same,glycan array binding signal (z-score),[22],-1.2
same,glycan array binding signal (z-score),[23],-0.439
same,glycan array binding signal (z-score),[24],-0.962
same,glycan array binding signal (z-score),[25],-0.072

# Laid out differently: results already given
binder	measurement	setting	value
KISKRILTGKK [NK11 (Sus scrofa)]	glycan array binding signal (z-score)	[8]	1.97
same	glycan array binding signal (z-score)	[24]	-0.962
